Measured values taken from the supplement of paper PMC11438910.
This is one part of the list. Only a few entries rise above the background.

How the values were obtained:
Experiment in all cases: fluorescence intensity of antibody binding to polysaccharide-coupled beads; higher = stronger binding
[1] = target: pneumococcal polysaccharide C-Poly-1
[2] = target: pneumococcal polysaccharide C-Poly-2
[3] = target: pneumococcal polysaccharide Pn1
[4] = target: pneumococcal polysaccharide Pn10A
[5] = target: pneumococcal polysaccharide Pn10B
[6] = target: pneumococcal polysaccharide Pn10C
[7] = target: pneumococcal polysaccharide Pn10F
[8] = target: pneumococcal polysaccharide Pn11A
[9] = target: pneumococcal polysaccharide Pn11B
[10] = target: pneumococcal polysaccharide Pn11C
[11] = target: pneumococcal polysaccharide Pn11D
[12] = target: pneumococcal polysaccharide Pn11F
[13] = target: pneumococcal polysaccharide Pn12A
[14] = target: pneumococcal polysaccharide Pn12B
[15] = target: pneumococcal polysaccharide Pn12F
[16] = target: pneumococcal polysaccharide Pn8
[17] = target: pneumococcal polysaccharide Pn9A
[18] = target: pneumococcal polysaccharide Pn9L
[19] = target: pneumococcal polysaccharide Pn9N
[20] = target: pneumococcal polysaccharide Pn9V
[21] = antibody concentration 0.1 ng/mL
[22] = antibody concentration 0.534724 ng/mL
[23] = antibody concentration 2.8593 ng/mL
[24] = antibody concentration 15.2894 ng/mL
[25] = antibody concentration 81.7561 ng/mL
[26] = antibody concentration 437.17 ng/mL
[27] = antibody concentration 2337.65 ng/mL
[28] = antibody concentration 12500 ng/mL

B1: 4-127.4 (protein)
chain 1: QVQLQESGPGLVKPSETLSLTCGVSGYSISSGHGWSWIRQPPGKGLEWIGYVGGSSGNTNYNPSLKSRVTISKDTSKNQISLKLSSVTAADTAVYYCARRGISGTFGLVDYWGQGVLVTVSS
chain 2: QSVLTQPPSVSGAPGQRVTISCTGSSSNIGGYYVQWYQQLPGSAPKLLIYDNDQRPSGVSDRISGSRSGTSASLTITGLQSEDEADYYCQSFDSFLRGVLFGGGTRLTVL
- fluorescence intensity [1, 21]: 25 MFI
- fluorescence intensity [1, 22]: 27 MFI
- fluorescence intensity [1, 23]: 29 MFI
- fluorescence intensity [1, 24]: 27.5 MFI
- fluorescence intensity [1, 25]: 28.5 MFI
- fluorescence intensity [1, 26]: 30 MFI
- fluorescence intensity [1, 27]: 35.5 MFI
- fluorescence intensity [1, 28]: 82.5 MFI
- fluorescence intensity [2, 21]: 19.5 MFI
- fluorescence intensity [2, 22]: 20.5 MFI
- fluorescence intensity [2, 23]: 20.5 MFI
- fluorescence intensity [2, 24]: 19.8 MFI
- fluorescence intensity [2, 25]: 21.5 MFI
- fluorescence intensity [2, 26]: 23.5 MFI
- fluorescence intensity [2, 27]: 29 MFI
- fluorescence intensity [2, 28]: 68.8 MFI
- fluorescence intensity [3, 21]: 13.5 MFI
- fluorescence intensity [3, 22]: 13 MFI
- fluorescence intensity [3, 23]: 13 MFI
- fluorescence intensity [3, 24]: 14 MFI
- fluorescence intensity [3, 25]: 14 MFI
- fluorescence intensity [3, 26]: 16 MFI
- fluorescence intensity [3, 27]: 17.5 MFI
- fluorescence intensity [3, 28]: 33 MFI
- fluorescence intensity [4, 21]: 25.5 MFI
- fluorescence intensity [4, 22]: 26.5 MFI
- fluorescence intensity [4, 23]: 26.8 MFI
- fluorescence intensity [4, 24]: 27.5 MFI
- fluorescence intensity [4, 25]: 27.8 MFI
- fluorescence intensity [4, 26]: 28.5 MFI
- fluorescence intensity [4, 27]: 27.5 MFI
- fluorescence intensity [4, 28]: 34 MFI
- fluorescence intensity [5, 21]: 23.5 MFI
- fluorescence intensity [5, 22]: 25.5 MFI
- fluorescence intensity [5, 23]: 24.8 MFI
- fluorescence intensity [5, 24]: 23.2 MFI
- fluorescence intensity [5, 25]: 23.5 MFI
- fluorescence intensity [5, 26]: 23.8 MFI
- fluorescence intensity [5, 27]: 25 MFI
- fluorescence intensity [5, 28]: 25 MFI
- fluorescence intensity [6, 21]: 18 MFI
- fluorescence intensity [6, 22]: 15.5 MFI
- fluorescence intensity [6, 23]: 16 MFI
- fluorescence intensity [6, 24]: 16.5 MFI
- fluorescence intensity [6, 25]: 16 MFI
- fluorescence intensity [6, 26]: 16 MFI
- fluorescence intensity [6, 27]: 17.5 MFI
- fluorescence intensity [6, 28]: 18.5 MFI
- fluorescence intensity [7, 21]: 22.5 MFI
- fluorescence intensity [7, 22]: 18.5 MFI
- fluorescence intensity [7, 23]: 20 MFI
- fluorescence intensity [7, 24]: 20 MFI
- fluorescence intensity [7, 25]: 20 MFI
- fluorescence intensity [7, 26]: 20.5 MFI
- fluorescence intensity [7, 27]: 20.2 MFI
- fluorescence intensity [7, 28]: 23.5 MFI
- fluorescence intensity [8, 21]: 27.8 MFI
- fluorescence intensity [8, 22]: 29 MFI
- fluorescence intensity [8, 23]: 30 MFI
- fluorescence intensity [8, 24]: 28.8 MFI
- fluorescence intensity [8, 25]: 30 MFI
- fluorescence intensity [8, 26]: 31.2 MFI
- fluorescence intensity [8, 27]: 35.8 MFI
- fluorescence intensity [8, 28]: 45.2 MFI
- fluorescence intensity [9, 21]: 27 MFI
- fluorescence intensity [9, 22]: 27.5 MFI
- fluorescence intensity [9, 23]: 25.8 MFI
- fluorescence intensity [9, 24]: 26.5 MFI
- fluorescence intensity [9, 25]: 25.8 MFI
- fluorescence intensity [9, 26]: 28.2 MFI
- fluorescence intensity [9, 27]: 31.2 MFI
- fluorescence intensity [9, 28]: 37.5 MFI
- fluorescence intensity [10, 21]: 22.2 MFI
- fluorescence intensity [10, 22]: 22.5 MFI
- fluorescence intensity [10, 23]: 22 MFI
- fluorescence intensity [10, 24]: 22 MFI
- fluorescence intensity [10, 25]: 21.5 MFI
- fluorescence intensity [10, 26]: 21.5 MFI
- fluorescence intensity [10, 27]: 27.8 MFI
- fluorescence intensity [10, 28]: 60 MFI
- fluorescence intensity [11, 21]: 23.8 MFI
- fluorescence intensity [11, 22]: 23.8 MFI
- fluorescence intensity [11, 23]: 23 MFI
- fluorescence intensity [11, 24]: 22.5 MFI
- fluorescence intensity [11, 25]: 23 MFI
- fluorescence intensity [11, 26]: 23.5 MFI
- fluorescence intensity [11, 27]: 24.2 MFI
- fluorescence intensity [11, 28]: 41.5 MFI
- fluorescence intensity [12, 21]: 15 MFI
- fluorescence intensity [12, 22]: 14.2 MFI
- fluorescence intensity [12, 23]: 13.8 MFI
- fluorescence intensity [12, 24]: 13.2 MFI
- fluorescence intensity [12, 25]: 13.2 MFI
- fluorescence intensity [12, 26]: 14.5 MFI
- fluorescence intensity [12, 27]: 16.5 MFI
- fluorescence intensity [12, 28]: 17.8 MFI
- fluorescence intensity [13, 21]: 16.8 MFI
- fluorescence intensity [13, 22]: 14.8 MFI
- fluorescence intensity [13, 23]: 15 MFI
- fluorescence intensity [13, 24]: 15.5 MFI
- fluorescence intensity [13, 25]: 14.5 MFI
- fluorescence intensity [13, 26]: 16 MFI
- fluorescence intensity [13, 27]: 16.5 MFI
- fluorescence intensity [13, 28]: 23.5 MFI
- fluorescence intensity [14, 21]: 15.5 MFI
- fluorescence intensity [14, 22]: 16 MFI
- fluorescence intensity [14, 23]: 15.8 MFI
- fluorescence intensity [14, 24]: 16.2 MFI
- fluorescence intensity [14, 25]: 16 MFI
- fluorescence intensity [14, 26]: 15.5 MFI
- fluorescence intensity [14, 27]: 16.5 MFI
- fluorescence intensity [14, 28]: 25.5 MFI
- fluorescence intensity [15, 21]: 18.2 MFI
- fluorescence intensity [15, 22]: 18.5 MFI
- fluorescence intensity [15, 23]: 17 MFI
- fluorescence intensity [15, 24]: 19 MFI
- fluorescence intensity [15, 25]: 19 MFI
- fluorescence intensity [15, 26]: 19.5 MFI
- fluorescence intensity [15, 27]: 20.5 MFI
- fluorescence intensity [15, 28]: 32.5 MFI

B2: 4-127.5 (protein)
chain 1: QVQLQESGPGLVKPSETLSLTCAVSGYSISSGYGWSWIRQPPGKGLEWIGYIGGSDSSTNYNPSLKSRVTISKDTSKNQLSLKLRSVTAADTAVYYCGSRGAVAGLGGLDSWGQGLLVTVSS
chain 2: QSVLTQPPSVSGAPGQRVTISCTGSSSNIGAGYGVQWYQQLPGTAPKLLIYENNKRPSGVFDRFSGSQSGTSGSLTITGLQSEDEADYYCQSYDSSLKAVLFGGGTRLTVL
- fluorescence intensity [16, 21]: 21 MFI
- fluorescence intensity [16, 22]: 23 MFI
- fluorescence intensity [16, 23]: 21 MFI
- fluorescence intensity [16, 24]: 22.5 MFI
- fluorescence intensity [16, 25]: 22.8 MFI
- fluorescence intensity [16, 26]: 25 MFI
- fluorescence intensity [16, 27]: 29.8 MFI
- fluorescence intensity [16, 28]: 36.2 MFI
- fluorescence intensity [17, 21]: 19.2 MFI
- fluorescence intensity [17, 22]: 19.5 MFI
- fluorescence intensity [17, 23]: 20.2 MFI
- fluorescence intensity [17, 24]: 19.2 MFI
- fluorescence intensity [17, 25]: 19.5 MFI
- fluorescence intensity [17, 26]: 19.5 MFI
- fluorescence intensity [17, 27]: 29 MFI
- fluorescence intensity [17, 28]: 82.2 MFI
- fluorescence intensity [18, 21]: 18 MFI
- fluorescence intensity [18, 22]: 18 MFI
- fluorescence intensity [18, 23]: 18 MFI
- fluorescence intensity [18, 24]: 18.2 MFI
- fluorescence intensity [18, 25]: 17.2 MFI
- fluorescence intensity [18, 26]: 18 MFI
- fluorescence intensity [18, 27]: 22.2 MFI
- fluorescence intensity [18, 28]: 49.8 MFI
- fluorescence intensity [19, 21]: 17 MFI
- fluorescence intensity [19, 22]: 16 MFI
- fluorescence intensity [19, 23]: 16 MFI
- fluorescence intensity [19, 24]: 17.5 MFI
- fluorescence intensity [19, 25]: 16.5 MFI
- fluorescence intensity [19, 26]: 18.5 MFI
- fluorescence intensity [19, 27]: 22.5 MFI
- fluorescence intensity [19, 28]: 60 MFI
- fluorescence intensity [20, 21]: 15.8 MFI
- fluorescence intensity [20, 22]: 15 MFI
- fluorescence intensity [20, 23]: 15.5 MFI
- fluorescence intensity [20, 24]: 15.5 MFI
- fluorescence intensity [20, 25]: 16.2 MFI
- fluorescence intensity [20, 26]: 16 MFI
- fluorescence intensity [20, 27]: 15.5 MFI
- fluorescence intensity [20, 28]: 20.5 MFI
